No constants are given. Whether binding was seen depends on the method and setting. Binding seen in cells or lysates may run through a third protein. Where a sequence is shown, tags or fusion partners need not be part of it.
Target: T1, WOX5-mVenus (WUSCHEL-RELATED HOMEOBOX 5 fused to mVenus), β-estradiol inducible, in N. benthamiana (Arabidopsis thaliana) (UniProt Q8H1D2)
T1 sequence: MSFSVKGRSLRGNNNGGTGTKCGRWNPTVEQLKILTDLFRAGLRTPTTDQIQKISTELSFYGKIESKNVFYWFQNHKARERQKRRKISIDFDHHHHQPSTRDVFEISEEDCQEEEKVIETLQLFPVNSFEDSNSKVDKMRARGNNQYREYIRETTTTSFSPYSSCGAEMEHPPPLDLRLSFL
Assay: FRET or BRET

Chains of the proteins cited; added tags and fusions are not shown. Lines headed by an entry give the natural chain unless they say otherwise; changes in a name come on top.
UniProt Q9ZNS0: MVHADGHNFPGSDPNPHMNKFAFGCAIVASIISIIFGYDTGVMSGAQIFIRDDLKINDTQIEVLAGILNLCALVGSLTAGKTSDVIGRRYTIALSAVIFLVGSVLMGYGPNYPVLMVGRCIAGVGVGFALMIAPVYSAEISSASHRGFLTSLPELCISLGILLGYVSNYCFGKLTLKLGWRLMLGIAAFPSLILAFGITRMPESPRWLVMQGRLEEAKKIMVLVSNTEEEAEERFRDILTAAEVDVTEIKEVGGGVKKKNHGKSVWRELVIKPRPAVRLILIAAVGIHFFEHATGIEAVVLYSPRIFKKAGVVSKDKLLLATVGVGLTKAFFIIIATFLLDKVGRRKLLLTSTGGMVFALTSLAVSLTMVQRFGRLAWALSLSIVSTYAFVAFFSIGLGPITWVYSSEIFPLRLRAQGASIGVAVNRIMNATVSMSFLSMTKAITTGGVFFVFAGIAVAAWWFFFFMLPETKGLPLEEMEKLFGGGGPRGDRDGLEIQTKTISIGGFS

In the case of “PLT3ΔQ-mCherry (PLT3 with its polyQ domains deleted, fused to mCherry) (from UniProt Q9ZNS0)”, the binding is reported as “no binding”.
